{"source": "patent US20230302009A1", "about": "“BACE1 INHIBITOR TREATMENT FOR S[…] STORM” (priority 2020, published 2023)", "key": {"U937-derived macrophages [1]": {"system": "U937-derived macrophages", "type": "cell-based, human", "conditions": "MK-8931 co-treatment with LPS; RT-qPCR"}, "LPS-challenged mice [2]": {"system": "LPS-challenged mice", "assay": "Survival rescue after lethal dose of LPS", "type": "in vivo, C57BL/6 mice", "conditions": "LPS 15 mg/kg, MK-8931 50 mg/kg oral at −24, 0, 12, 24, 48, 72 h; log-rank p<0.01; 7 days"}, "U937-derived macrophages [3]": {"system": "U937-derived macrophages", "type": "cell-based, human", "conditions": "MK-8931 co-treatment with Spike protein; RT-qPCR, relative to BSA control"}, "U937-derived macrophages [4]": {"system": "U937-derived macrophages", "type": "cell-based, human"}, "U937-derived macrophages [5]": {"system": "U937-derived macrophages", "type": "cell-based, human", "remark": "listed apart in the source"}, "iPSC-derived macrophages": {"system": "iPSC-derived macrophages", "type": "cell-based, human", "conditions": "repeat of the U937 results"}, "LPS-challenged mice [6]": {"system": "LPS-challenged mice", "assay": "H&E histology, tissue injury score after LPS", "conditions": "LPS plus MK-8931 versus LPS only; H&E injury score 0-4; p<0.001"}}, "note": "Entries after “also recorded” stand apart in the source; their conditions may differ. For at least one compound, name, drawing or mass did not settle the structure.", "data": [{"compound": "CN1C(N)=N[C@](C)(c2cc(NC(=O)c3ccc(F)cn3)ccc2F)CS1(=O)=O", "note": "[MK-8931]", "values": [{"measurement": "LPS-induced mRNA expression of cytokines", "setting": "U937-derived macrophages [1]", "value": "suppressed"}, {"measurement": "protection from cytokine storm-induced death (Kaplan-Meier survival)", "setting": "LPS-challenged mice [2]", "value": "significantly protected; also recorded: protects"}, {"measurement": "Spike protein-induced mRNA expression of cytokines/chemokines", "setting": "U937-derived macrophages [3]", "value": "suppressed; also recorded: effectively inhibited"}, {"measurement": "LPS-induced secretion of pro-inflammatory cytokines (IL-6, IL-1β, TNFα, G-CSF, GM-CSF, IL-10, Serpin E1)", "setting": "U937-derived macrophages [4]; MK-8931 50 μg/mL plus LPS 1 μg/mL, 24 h, cytokine array", "value": "abolished; also recorded: effectively attenuated"}, {"measurement": "LPS-induced downregulation of MIF expression", "setting": "U937-derived macrophages [4]; MK-8931 plus LPS, cytokine array and RT-qPCR", "value": "partially rescued"}, {"measurement": "Spike protein-induced release of pro-inflammatory cytokines/chemokines (G-CSF, IL-16, IL-13, IL-32a, IL-18, IL-17E, SFD-1, CCL-1, MIP1α)", "setting": "U937-derived macrophages [5]", "value": "abolished; also recorded: almost entirely blocked; also recorded: suppresses; also recorded: effectively attenuates; also recorded: largely attenuated"}, {"measurement": "suppression of Spike protein-induced cytokines in iPSC-derived macrophages", "setting": "iPSC-derived macrophages", "value": "validated"}, {"measurement": "LPS-induced tissue injury in lung and kidney", "setting": "LPS-challenged mice [6]", "value": "remarkably attenuated; also recorded: significantly reduced"}]}]}
